Our source for the binding values is publication doi:10.1101/181180.

What all share (test): affinity purification with mass spectrometry
In test [1] the target is T1, Mer2-TAP (S. cerevisiae (SK1)), P21651.
T1 chain: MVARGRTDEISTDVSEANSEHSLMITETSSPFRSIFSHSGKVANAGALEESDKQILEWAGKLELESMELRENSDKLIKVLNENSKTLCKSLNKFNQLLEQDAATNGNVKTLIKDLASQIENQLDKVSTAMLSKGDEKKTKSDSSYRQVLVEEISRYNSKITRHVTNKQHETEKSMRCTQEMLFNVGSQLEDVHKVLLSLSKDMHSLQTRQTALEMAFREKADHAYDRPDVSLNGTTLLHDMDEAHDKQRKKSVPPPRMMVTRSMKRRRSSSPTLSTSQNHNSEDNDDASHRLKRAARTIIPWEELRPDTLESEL
The settings on record: remark: other sources report otherwise.

The target in test [2] is T2, Spp1-TAP (S. cerevisiae (SK1)) (UniProt Q03012).
T2 sequence: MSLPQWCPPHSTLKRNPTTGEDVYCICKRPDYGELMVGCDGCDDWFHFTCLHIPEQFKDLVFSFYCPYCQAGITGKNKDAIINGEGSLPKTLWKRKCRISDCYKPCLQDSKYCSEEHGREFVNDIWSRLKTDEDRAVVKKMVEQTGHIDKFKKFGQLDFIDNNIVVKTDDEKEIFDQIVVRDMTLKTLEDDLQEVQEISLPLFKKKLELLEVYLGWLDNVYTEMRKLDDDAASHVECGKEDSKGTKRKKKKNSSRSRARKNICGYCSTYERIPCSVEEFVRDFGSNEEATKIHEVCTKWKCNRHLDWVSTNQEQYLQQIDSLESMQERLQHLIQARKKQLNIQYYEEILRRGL

The target of test [3] is T3, Mer2-TAP (S. cerevisiae (SK1)) (UniProt P21651).
T3 sequence: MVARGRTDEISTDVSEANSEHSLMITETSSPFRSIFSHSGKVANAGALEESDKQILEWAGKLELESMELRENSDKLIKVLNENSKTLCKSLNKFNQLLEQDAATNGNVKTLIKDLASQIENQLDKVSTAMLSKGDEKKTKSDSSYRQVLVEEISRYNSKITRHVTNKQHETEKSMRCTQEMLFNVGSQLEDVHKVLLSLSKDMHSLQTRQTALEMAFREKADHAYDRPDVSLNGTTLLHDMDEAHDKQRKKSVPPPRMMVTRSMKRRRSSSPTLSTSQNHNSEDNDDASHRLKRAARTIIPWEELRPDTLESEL

No constants are given. Whether binding was seen depends on the method and setting. Binding seen in cells or lysates may run through a third protein. These calls come from enrichment with a bait or labelling near it, and not all partners need be listed. For some assays here: A no says only that the protein was not detected with the bait.

B1: Mei4, P29467 1-408 (protein)
chain: MSRGKLEDMEQKETSEVDWIICFALIQSRNPTLWKRALSRKKGDVEDVGALKSEKNLKINPRENSKHIYKWVAPFENGFLNNKSLFAHLEPIYNFLCQNKYKSFEDAVGLKELQSFSKDVSTADINNWFLPRYKILLKILSLKTKEIDFRGLSQVFQTLQILLVSHYSHRIDSDSSFKRTLIDVHVFNFIAKFLFNRILLKKNQNDPKWLQNFYDQGDGKHLCDKVDYKRLCSLHFTLIYSIINIQLIKIKTNQTFEPQILKYVSVLKLIEHILIIIESLIHVLIRFVSKHKLICINRKKAYCRVYLERELSLKKTYLKNFYSVISGVPEKELGGLLKILKIVILSLLETFESIEWQHLKPFLEKFPAHEISLQKKRKYIQAALLITAERNLIARFRLSRWFNETENI
B1: the binding result in test [1] was “no binding”.

B2: Mer2 (protein, UniProt P21651 1-314)
chain: MVARGRTDEISTDVSEANSEHSLMITETSSPFRSIFSHSGKVANAGALEESDKQILEWAGKLELESMELRENSDKLIKVLNENSKTLCKSLNKFNQLLEQDAATNGNVKTLIKDLASQIENQLDKVSTAMLSKGDEKKTKSDSSYRQVLVEEISRYNSKITRHVTNKQHETEKSMRCTQEMLFNVGSQLEDVHKVLLSLSKDMHSLQTRQTALEMAFREKADHAYDRPDVSLNGTTLLHDMDEAHDKQRKKSVPPPRMMVTRSMKRRRSSSPTLSTSQNHNSEDNDDASHRLKRAARTIIPWEELRPDTLESEL
As for B2, in test [2], the binding entry is reported as “binds”.

B3: Spp1 (protein, UniProt Q03012 1-353)
chain: MSLPQWCPPHSTLKRNPTTGEDVYCICKRPDYGELMVGCDGCDDWFHFTCLHIPEQFKDLVFSFYCPYCQAGITGKNKDAIINGEGSLPKTLWKRKCRISDCYKPCLQDSKYCSEEHGREFVNDIWSRLKTDEDRAVVKKMVEQTGHIDKFKKFGQLDFIDNNIVVKTDDEKEIFDQIVVRDMTLKTLEDDLQEVQEISLPLFKKKLELLEVYLGWLDNVYTEMRKLDDDAASHVECGKEDSKGTKRKKKKNSSRSRARKNICGYCSTYERIPCSVEEFVRDFGSNEEATKIHEVCTKWKCNRHLDWVSTNQEQYLQQIDSLESMQERLQHLIQARKKQLNIQYYEEILRRGL
With B3, the binding entry in test [3] is on record as “binds”.

B4: Rec114, P32841 1-428 (protein)
chain: MYEYCSVVIKKYSKYTIPSFAPNGFQSMLEPPQIDKWQHLSANCTLQFRVLLMDSRQILINVVLNNSTLLENIRLPLGDNQDLIQFSCKSPIISCKYISEEFGPRMLRRFQMNLPNDVEFNRTVVSLKNLNFVLRTARTSIAQSTITSQVQGNNNGTKVCFTEGPKVSSYTNPNTQFQTQNMIMDFSQRYQEESERESNNRSNITLPHDSIQIAQQIWPNTDLNVVQSSQDLNTPMATQTVLGRPESLIVQPLEVSQSPPNTTNCLPNAENKKKKVDTTSDFTSRKEIALCKTGLLETIHIPKERESQMQSVTGLDATPTIIWSPGKDNTAKKNTSNKKNIDDKLTNPQKSGNTHTPDRNKEVLPNGTLNETRKEASPSEGLTIRVKNVNRNASRKISKRLIKEKLKDEEFMKWVNKVETVLNKMFEK
As for B4, the binding entry in test [1] is listed as “no binding”.

B5: Swd1 (protein, UniProt P39706 1-426)
chain: MNILLQDPFAVLKEHPEKLTHTIENPLRTECLQFSPCGDYLALGCANGALVIYDMDTFRPICVPGNMLGAHVRPITSIAWSPDGRLLLTSSRDWSIKLWDLSKPSKPLKEIRFDSPIWGCQWLDAKRRLCVATIFEESDAYVIDFSNDPVASLLSKSDEKQLSSTPDHGYVLVCTVHTKHPNIIIVGTSKGWLDFYKFHSLYQTECIHSLKITSSNIKHLIVSQNGERLAINCSDRTIRQYEISIDDENSAVELTLEHKYQDVINKLQWNCILFSNNTAEYLVASTHGSSAHELYIWETTSGTLVRVLEGAEEELIDINWDFYSMSIVSNGFESGNVYVWSVVIPPKWSALAPDFEEVEENVDYLEKEDEFDEVDEAEQQQGLEQEEEIAIDLRTREQYDVRGNNLLVERFTIPTDYTRIIKMQSS
As to B5, the binding result in test [3] is recorded as “no binding”.
